Laboratory results published in PubChem BioAssay AID2685 (National Center for Advancing Translational Sciences (NCATS), 2010).
Hit rate of the full screen: of about 320,000 compounds, about 2,100 (0.66%) were called active. The inconclusive results got no clear call from the source; some entries with a clear call stand among them for comparison. The call rests on the fitted dose curve; in most records, active means well fitted inhibition curve with a large enough effect in the signal ratio, with a control signal flat (not every such curve was filed as active); inconclusive means small, poorly fitted or top-dose-only effect, or effect the other way, or a change in a side signal; inactive means flat fitted curve, though single readings scatter; the % refers to the signal ratio. Where the call is inconclusive, the potency comes from a doubtful curve fit.

Experiment: qHTS Assay for Lipid Storage Modulators in Drosophila S3 Cells
Details: BODIPY lipid droplet fluorescence, 18-24 h, cells fed with added oleic acid; lipid storage change, negative = inhibition: at 46.1 µM (top of the series) unless noted
In short: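 Laser-scanning cytometry quantifies lipid droplet accumulation (500–530 nm total intensity; droplet/cell object ratio) in oleic acid-fed (400 uM added) Drosophila S3 cells treated with a concentration series. 20 uM Triacsin C defined 100% inhibition.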
On the % scale 0 is the no-effect control and ±100 the full control effect; potency means the concentration at half of the fitted maximal effect.

| SMILES | lipid storage change, negative = inhibition | Potency |
| --- | --- | --- |
| CCOc1ccc(NC(=O)NNC(=O)c2cc3ccccc3cc2O)cc1 | inconclusive: 40% [activator] [at 0.00295 µM] | – |
| CC(=O)c1cccc(NC(=O)NC(C)C2CCCO2)c1 (stereo not given) | – | inconclusive: 0.184 µM [falling, partial curve] |
| C#CCOc1ccc(Cl)cc1/C=N/O | – | inconclusive: 0.82 µM [activator, full curve] |
| COc1ccc(C(=O)NC2CC2)cc1OC1CCN(Cc2cnn(C)c2C)CC1 | inconclusive: -11.3% | – |
| CN(C)CCCn1cnc2c(c1=N)C(c1ccccc1)c1ccc3ccccc3c1O2 (stereo not given) | – | inconclusive: 29.1 µM [cytotoxic, partial curve] |
| Cc1cccc(CSCCNC(=O)CN2C(=O)c3ccccc3S2(=O)=O)c1 | inconclusive: 7.02% | – |
| O=C(COc1ccc(S(=O)(=O)N2CCCC2)cc1Cl)Nc1ccc2c(c1)OCO2 | inconclusive: 38.5% | – |
| CCOC(=O)C1=C(C)NC(=O)NC1c1cccc(O)c1 (stereo not given) | – | active: 20.6 µM |
| CC1=CN2C(=N)/C(=C/c3ccco3)C(=O)N=C2S1 | – | inconclusive: 16.4 µM [activator, single point] |
| CN(C(=O)COc1ccc(Cl)cc1Cl)c1nnc(C23CC4CC(CC(C4)C2)C3)s1 | – | inconclusive: 5.8 µM [activator, partial curve] |
| COc1ccc(OC)c(CCNC(=O)C(C)n2nc(C)c3c(C)n(-c4ccc(C)cc4)nc3c2=O)c1 (stereo not given) | inconclusive: -37.8% | – |
| COc1ccccc1CNc1ncnc2nc[nH]c12 | inconclusive: 16.7% | – |
| CCSC1=NCN(CCCC(=O)O)CN1 | inconclusive: -80.7% | – |
| c1coc(-c2nn3c(-c4ccco4)nnc3s2)c1 | – | inconclusive: 0.0184 µM [activator, full curve, poor fit] |
| CCn1c(=O)[nH]c2cc(C(=O)Nc3cc(C)cc(C)c3)ccc2c1=O | – | inconclusive: 23.1 µM [falling, partial curve] |
| COCCCn1c(C(C)C)nc2oc3cc(OC)ccc3c(=O)c2c1=O | – | inconclusive: 4.11 µM [activator, single point] |
| Cc1ccc(NC(=O)COc2nc(C)cs2)cc1 | inconclusive: 36.7% | – |
| CC1(c2nnc(-c3ccc(F)cc3)o2)CC(c2c(Cl)cccc2Cl)=NO1 (stereo not given) | inconclusive: 18.4% | – |
| CC(=O)Nc1ccc2nc(NC(=O)CCc3ccccc3)sc2c1 | inconclusive: 5.39% | – |
| O=C(CSc1ncc(C(F)(F)F)cc1Cl)NCC1CCCO1 (stereo not given) | inconclusive: 4.22% | – |
